Assay results: the supplement of paper PMC10849652
The other results are listed elsewhere or left out.

By UniProt entry, the sequences of proteins in these tests, tags left out. Where a name states a change or a piece, a line headed by the entry shows the natural chain unless it says otherwise.
UniProt O94830: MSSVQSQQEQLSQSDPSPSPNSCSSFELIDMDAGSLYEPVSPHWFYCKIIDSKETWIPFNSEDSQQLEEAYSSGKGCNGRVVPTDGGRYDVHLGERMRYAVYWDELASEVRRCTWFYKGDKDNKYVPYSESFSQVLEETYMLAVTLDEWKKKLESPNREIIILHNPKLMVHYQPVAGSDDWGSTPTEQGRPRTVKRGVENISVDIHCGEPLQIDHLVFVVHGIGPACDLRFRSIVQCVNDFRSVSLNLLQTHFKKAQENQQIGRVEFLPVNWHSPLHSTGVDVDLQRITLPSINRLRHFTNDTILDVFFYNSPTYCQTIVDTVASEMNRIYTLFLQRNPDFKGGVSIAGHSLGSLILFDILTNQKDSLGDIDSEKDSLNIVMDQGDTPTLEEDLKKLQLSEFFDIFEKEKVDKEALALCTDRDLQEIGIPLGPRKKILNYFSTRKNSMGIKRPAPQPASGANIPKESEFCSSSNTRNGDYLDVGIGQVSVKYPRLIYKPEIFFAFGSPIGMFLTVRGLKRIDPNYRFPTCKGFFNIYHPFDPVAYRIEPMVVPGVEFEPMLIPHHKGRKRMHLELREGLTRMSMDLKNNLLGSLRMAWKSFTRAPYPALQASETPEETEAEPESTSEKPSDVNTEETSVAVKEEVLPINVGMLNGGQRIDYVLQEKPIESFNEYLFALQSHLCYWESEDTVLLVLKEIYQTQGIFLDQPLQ
UniProt Q5TDH0: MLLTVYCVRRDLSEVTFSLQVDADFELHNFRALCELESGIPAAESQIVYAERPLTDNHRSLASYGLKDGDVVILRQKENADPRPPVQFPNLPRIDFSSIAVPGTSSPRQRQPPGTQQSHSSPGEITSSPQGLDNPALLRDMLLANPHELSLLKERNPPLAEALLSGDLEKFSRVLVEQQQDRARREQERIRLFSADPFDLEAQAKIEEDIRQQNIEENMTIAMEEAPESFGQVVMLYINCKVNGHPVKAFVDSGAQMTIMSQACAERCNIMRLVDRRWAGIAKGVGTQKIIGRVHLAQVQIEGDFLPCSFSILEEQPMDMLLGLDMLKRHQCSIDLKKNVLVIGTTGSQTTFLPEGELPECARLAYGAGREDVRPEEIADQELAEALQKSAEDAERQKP
UniProt P30046: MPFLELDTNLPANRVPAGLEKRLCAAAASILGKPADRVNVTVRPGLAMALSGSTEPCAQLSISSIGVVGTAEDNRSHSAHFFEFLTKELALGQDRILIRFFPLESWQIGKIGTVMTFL
UniProt O75911: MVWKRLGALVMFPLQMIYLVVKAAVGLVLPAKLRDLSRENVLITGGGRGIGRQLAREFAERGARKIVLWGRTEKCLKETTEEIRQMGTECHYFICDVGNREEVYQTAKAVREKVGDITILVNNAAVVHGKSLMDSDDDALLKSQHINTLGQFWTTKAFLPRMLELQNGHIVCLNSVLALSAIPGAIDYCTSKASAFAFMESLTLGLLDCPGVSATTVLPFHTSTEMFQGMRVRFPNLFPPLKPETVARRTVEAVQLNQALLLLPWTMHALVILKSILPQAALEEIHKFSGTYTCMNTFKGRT
UniProt Q8WYQ5: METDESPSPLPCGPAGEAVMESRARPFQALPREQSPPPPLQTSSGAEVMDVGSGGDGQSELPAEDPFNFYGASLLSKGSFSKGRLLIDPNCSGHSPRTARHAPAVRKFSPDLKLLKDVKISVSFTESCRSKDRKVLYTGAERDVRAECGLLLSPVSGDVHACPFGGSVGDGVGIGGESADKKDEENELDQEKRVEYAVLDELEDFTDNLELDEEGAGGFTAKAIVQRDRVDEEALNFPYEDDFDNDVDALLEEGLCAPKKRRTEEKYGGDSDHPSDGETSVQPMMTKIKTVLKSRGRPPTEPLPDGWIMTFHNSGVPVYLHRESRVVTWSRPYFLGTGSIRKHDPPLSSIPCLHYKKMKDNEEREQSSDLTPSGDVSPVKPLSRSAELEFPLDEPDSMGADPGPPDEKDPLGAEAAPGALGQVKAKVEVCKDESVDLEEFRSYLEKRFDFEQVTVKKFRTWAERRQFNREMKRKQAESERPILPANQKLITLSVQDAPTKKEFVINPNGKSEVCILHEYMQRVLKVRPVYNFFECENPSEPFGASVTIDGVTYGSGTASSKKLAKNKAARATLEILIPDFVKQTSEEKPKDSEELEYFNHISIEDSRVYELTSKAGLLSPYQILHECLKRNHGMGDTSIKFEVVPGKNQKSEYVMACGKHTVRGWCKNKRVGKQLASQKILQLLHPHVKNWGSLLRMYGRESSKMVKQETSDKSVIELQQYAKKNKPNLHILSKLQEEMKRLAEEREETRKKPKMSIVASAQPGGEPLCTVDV
UniProt Q9NUI1: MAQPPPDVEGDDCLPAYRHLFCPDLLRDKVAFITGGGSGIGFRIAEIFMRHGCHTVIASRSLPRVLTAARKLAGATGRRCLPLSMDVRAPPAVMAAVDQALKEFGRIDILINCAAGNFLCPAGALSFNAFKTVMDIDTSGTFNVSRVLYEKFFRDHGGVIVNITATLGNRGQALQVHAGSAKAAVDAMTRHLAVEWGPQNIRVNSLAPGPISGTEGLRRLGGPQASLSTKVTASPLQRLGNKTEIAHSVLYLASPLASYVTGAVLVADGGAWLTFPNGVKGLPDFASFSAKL
UniProt Q86SQ9: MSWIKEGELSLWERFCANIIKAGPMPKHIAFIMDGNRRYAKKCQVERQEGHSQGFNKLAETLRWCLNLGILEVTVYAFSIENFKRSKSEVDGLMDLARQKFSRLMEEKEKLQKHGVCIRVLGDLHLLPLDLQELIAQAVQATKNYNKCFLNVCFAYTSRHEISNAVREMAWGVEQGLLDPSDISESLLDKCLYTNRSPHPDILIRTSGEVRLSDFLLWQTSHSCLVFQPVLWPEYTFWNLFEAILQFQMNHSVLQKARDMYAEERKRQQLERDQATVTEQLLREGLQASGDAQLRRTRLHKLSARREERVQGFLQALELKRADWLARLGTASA
UniProt Q08211, whole entry, looked up: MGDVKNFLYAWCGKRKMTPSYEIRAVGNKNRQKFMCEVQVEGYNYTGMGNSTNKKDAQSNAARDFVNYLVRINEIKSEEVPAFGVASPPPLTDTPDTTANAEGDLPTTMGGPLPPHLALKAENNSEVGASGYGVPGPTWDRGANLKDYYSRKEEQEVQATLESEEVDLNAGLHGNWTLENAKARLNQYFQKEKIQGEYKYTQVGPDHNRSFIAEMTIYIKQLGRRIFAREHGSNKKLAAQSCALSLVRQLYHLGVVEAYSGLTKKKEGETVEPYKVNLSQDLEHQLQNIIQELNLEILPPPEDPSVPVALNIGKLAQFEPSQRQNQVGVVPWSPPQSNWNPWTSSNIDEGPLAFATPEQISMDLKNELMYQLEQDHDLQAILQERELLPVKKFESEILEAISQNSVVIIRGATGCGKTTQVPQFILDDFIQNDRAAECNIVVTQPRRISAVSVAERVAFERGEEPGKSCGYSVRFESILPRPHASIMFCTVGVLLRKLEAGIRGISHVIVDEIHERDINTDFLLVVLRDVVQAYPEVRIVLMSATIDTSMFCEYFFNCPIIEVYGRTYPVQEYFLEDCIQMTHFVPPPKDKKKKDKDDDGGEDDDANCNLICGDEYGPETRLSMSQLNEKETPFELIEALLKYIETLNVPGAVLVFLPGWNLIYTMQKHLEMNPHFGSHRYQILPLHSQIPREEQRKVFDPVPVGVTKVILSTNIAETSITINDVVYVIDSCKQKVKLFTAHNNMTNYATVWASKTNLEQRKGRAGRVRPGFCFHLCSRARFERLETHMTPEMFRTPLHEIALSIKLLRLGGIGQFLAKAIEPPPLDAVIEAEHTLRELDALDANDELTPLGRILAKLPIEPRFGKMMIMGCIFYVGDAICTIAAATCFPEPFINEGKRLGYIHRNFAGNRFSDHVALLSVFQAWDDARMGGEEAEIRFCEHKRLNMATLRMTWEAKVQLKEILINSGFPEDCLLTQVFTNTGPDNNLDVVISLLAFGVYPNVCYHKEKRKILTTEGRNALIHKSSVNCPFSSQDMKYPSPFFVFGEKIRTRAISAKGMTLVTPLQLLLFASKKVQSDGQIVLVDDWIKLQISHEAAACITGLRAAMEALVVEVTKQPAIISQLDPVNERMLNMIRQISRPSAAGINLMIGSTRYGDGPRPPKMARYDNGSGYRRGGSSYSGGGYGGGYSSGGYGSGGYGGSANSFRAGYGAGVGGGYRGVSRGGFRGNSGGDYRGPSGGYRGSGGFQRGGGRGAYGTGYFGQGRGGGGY
UniProt Q9NY93: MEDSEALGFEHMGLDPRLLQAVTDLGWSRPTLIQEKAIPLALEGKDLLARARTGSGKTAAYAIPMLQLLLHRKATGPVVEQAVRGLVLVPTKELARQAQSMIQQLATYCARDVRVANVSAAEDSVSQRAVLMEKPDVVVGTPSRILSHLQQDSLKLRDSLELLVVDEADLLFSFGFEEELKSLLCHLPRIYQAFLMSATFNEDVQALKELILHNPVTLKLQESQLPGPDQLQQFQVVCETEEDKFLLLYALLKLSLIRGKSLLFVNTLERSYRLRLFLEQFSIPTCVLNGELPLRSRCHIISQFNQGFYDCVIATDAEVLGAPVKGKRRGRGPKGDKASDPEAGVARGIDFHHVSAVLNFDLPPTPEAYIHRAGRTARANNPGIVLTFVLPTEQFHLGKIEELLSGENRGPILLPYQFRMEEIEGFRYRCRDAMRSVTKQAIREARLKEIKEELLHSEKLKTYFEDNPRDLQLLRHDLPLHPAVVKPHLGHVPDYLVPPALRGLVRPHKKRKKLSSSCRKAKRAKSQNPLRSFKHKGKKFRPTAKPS
UniProt Q7L2E3: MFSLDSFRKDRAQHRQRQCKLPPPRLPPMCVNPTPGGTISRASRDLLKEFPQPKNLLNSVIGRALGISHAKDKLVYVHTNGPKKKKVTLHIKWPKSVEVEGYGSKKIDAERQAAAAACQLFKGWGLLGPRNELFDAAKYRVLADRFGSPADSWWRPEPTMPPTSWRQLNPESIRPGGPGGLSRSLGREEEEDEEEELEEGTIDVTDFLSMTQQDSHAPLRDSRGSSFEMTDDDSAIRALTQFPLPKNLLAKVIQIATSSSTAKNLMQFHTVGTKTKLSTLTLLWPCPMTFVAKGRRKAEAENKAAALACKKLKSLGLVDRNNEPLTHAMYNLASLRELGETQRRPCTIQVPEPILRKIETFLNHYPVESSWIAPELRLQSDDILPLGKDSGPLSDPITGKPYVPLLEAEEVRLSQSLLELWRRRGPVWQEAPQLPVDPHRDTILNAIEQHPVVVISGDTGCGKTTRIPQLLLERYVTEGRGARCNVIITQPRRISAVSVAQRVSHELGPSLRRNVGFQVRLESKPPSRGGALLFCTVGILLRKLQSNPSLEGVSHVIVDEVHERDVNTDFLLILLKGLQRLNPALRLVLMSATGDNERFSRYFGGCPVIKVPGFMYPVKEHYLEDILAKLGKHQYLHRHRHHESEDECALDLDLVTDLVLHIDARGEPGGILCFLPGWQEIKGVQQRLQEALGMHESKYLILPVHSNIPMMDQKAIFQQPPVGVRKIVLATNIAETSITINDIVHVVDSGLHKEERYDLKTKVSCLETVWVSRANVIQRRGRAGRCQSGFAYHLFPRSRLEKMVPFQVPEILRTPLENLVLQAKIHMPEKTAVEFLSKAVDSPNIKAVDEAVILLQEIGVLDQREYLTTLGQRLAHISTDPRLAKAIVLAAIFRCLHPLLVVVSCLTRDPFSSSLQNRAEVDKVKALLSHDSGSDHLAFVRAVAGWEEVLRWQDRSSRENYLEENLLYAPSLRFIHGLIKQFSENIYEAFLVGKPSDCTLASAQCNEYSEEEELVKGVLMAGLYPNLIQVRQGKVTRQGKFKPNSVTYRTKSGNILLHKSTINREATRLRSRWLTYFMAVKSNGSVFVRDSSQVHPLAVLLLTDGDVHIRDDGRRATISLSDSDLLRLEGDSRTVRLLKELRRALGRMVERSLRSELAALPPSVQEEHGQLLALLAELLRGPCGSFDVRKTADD
UniProt Q5T1V6: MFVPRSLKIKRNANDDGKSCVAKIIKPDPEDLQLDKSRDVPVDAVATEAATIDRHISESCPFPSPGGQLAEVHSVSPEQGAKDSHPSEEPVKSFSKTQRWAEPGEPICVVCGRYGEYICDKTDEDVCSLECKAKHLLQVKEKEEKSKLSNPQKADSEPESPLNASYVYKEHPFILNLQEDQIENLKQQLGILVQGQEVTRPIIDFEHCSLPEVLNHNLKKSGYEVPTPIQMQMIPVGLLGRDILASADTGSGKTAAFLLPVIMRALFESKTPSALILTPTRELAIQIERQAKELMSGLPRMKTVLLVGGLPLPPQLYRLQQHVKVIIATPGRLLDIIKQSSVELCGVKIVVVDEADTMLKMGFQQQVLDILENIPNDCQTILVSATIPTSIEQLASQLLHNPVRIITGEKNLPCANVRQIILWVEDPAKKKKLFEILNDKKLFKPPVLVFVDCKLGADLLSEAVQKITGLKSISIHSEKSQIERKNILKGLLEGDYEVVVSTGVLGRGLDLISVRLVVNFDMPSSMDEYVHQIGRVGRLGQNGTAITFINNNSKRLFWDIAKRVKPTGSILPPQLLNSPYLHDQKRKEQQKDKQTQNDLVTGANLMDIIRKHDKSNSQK

Tests used:
Assay in all cases: log2 fold change, soluble protein after heating vs DMSO (PISA); higher = thermal stabilisation; K562 cells, 10 uM, 30 min; active = over 0.2 and 3.5 SD of the protein, either way, in both replicates (recomputed)
[1] = compound: NC(=O)Nc1cc(-c2cccc(F)c2)sc1C(=O)N[C@H]1CCCNC1
Summary of the method: (§1)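 For each measurement, 10 μM compound was applied for 30 min to K562 cells at 2×10^6 cells/mL. Aliquots were heated for 3 min across 48°C-58°C, pooled, and extracted in PBS with 0.5% NP-40 at 4°C; the supernatant after 21,000xg for 90 min was soluble protein. This was quantified by TMTpro 16plex LC-MS/MS with channel sums equalised, and thermal stability was reported relative to control samples from duplicates, on a log2 fold-change scale.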

[2] = compound: NC(=O)c1cnc(N[C@@H]2CCCC[C@@H]2N)nc1Nc1cccc(-n2nccn2)c1
Summary of the method: as §1

[3] = compound: NC1(c2ccc(-c3nc4ccn5c(=O)[nH]nc5c4cc3-c3ccccc3)cc2)CCC1
Summary of the method: as §1

[4] = compound: NCC(=O)Nc1ccc(-n2nc(C(F)(F)F)cc2-c2ccc3c(ccc4ccccc43)c2)cc1
Summary of the method: as §1

[5] = compound: Nc1ccccc1NC(=O)c1ccc(CNC(=O)OCc2cccnc2)cc1 [entinostat]
Summary of the method: as §1

[6] = compound: O=C(CCCCCCC(=O)Nc1ccccc1)NO [vorinostat]
Summary of the method: as §1

[7] = compound: O=C(CCCCCCNC(=O)c1cnc(N(c2ccccc2)c2ccccc2Cl)nc1)NO [citarinostat]
Summary of the method: as §1

[8] = compound: O=C(O)c1ccc2c(c1)nc(Nc1cccc(Cl)c1)c1ccncc12 [silmitasertib]
Summary of the method: as §1

[9] = compound: O=C1NC(=O)C(c2cnc3ccccn23)=C1c1cn2c3c(cc(F)cc13)CN(C(=O)N1CCCCC1)CC2
Summary of the method: as §1

[10] = compound: c1cc(OCCN2CCCCC2)cc(-c2n[nH]c3ccc(-c4nnc[nH]4)cc23)c1
Summary of the method: as §1

Measured: log2 fold change

DDHD2 (UniProt O94830)
inactive: [1] 0.006 | [2] -0.065 | [3] -0.08 | [4] 0.023 | [5] 0.032 | [6] 0.082 | [7] 0.047 | [8] -0.02 | [9] -0.025 | [10] 0.026

DLG2 isoform 2 (UniProt Q15700)
inactive: [1] -0.057 | [2] 0.082 | [3] -0.089 | [4] -0.131 | [5] 0.004 | [6] -0.101 | [7] -0.046 | [8] 0.043 | [9] -0.03 | [10] 0.043

DDI2 isoform 3 (UniProt Q5TDH0)
inactive: [1] 0.002 | [2] -0.024 | [3] -0.029 | [4] 0.02 | [5] -0.013 | [6] 0.031 | [7] 0.038 | [8] 0.003 | [9] -0.022 | [10] 0.039

DHCR7 (UniProt Q9UBM7)
inactive: [1] 0.08 | [2] 0.014 | [3] 0.239 | [4] -0.134 | [5] 0.082 | [6] 0.03 | [7] -0.023 | [8] -0.084 | [9] -0.04 | [10] -0.026

DHRS4L1 (UniProt P0CG22)
inactive: [1] -0.075 | [2] -0.005 | [3] -0.024 | [4] -0.01 | [5] 0.016 | [6] -0.022 | [7] -0.013 | [8] -0.026 | [9] -0.048 | [10] -0.027

DDT (UniProt P30046)
inactive: [1] -0.004 | [2] 0.008 | [3] -0.014 | [4] 0.039 | [5] -0.006 | [6] -0.02 | [7] 0.056 | [8] -0.064 | [9] -0.105 | [10] -0.044

DHRS3 (UniProt O75911)
inactive: [1] -0.032 | [2] -0.047 | [3] -0.081 | [4] -0.06 | [5] 0.05 | [6] -0.084 | [7] 0.024 | [8] 0.009 | [9] 0.046 | [10] -0.06

DECR1 (UniProt Q16698)
inactive: [1] 0.013 | [2] 0.002 | [3] -0.016 | [4] 0.025 | [5] -0.019 | [6] 0.02 | [7] 0.025 | [8] -0.022 | [9] -0.022 | [10] -0.038

DGCR8 (UniProt Q8WYQ5)
inactive: [1] 0.115 | [2] 0.085 | [3] 0.256 | [4] 0.173 | [5] 0.028 | [6] 0.008 | [7] -0.129 | [8] 0.173 | [9] 0.219 | [10] -0.113

DGAT1 (UniProt O75907)
inactive: [1] 0.04 | [2] -0.019 | [3] 0.022 | [4] 0.054 | [5] 0.017 | [6] 0.006 | [7] 0.016 | [8] 0.07 | [9] 0.106 | [10] -0.16

DDX3X (UniProt O00571)
inactive: [1] 0.145 | [2] -0.037 | [3] 0.36 | [4] 0.1 | [5] 0.16 | [6] 0.071 | [7] -0.095 | [8] 0.154 | [9] 0.382 | [10] -0.31

DECR2 (UniProt Q9NUI1)
inactive: [1] -0.041 | [2] 0.023 | [3] -0.139 | [4] -0.099 | [5] -0.001 | [6] 0.019 | [7] -0.038 | [8] 0.019 | [9] -0.057 | [10] 0.292

Taken from the listing (6 entries):
DHCR7 (UniProt Q9UBM7)
inactive: [1] 0.08 | [2] 0.014 | [3] 0.239 | [4] -0.134 | [5] 0.082 | [6] 0.03 | [7] -0.023 | [8] -0.084 | [9] -0.04 | [10] -0.026

DHRS4L1 (UniProt P0CG22)
inactive: [1] -0.075 | [2] -0.005 | [3] -0.024 | [4] -0.01 | [5] 0.016 | [6] -0.022 | [7] -0.013 | [8] -0.026 | [9] -0.048 | [10] -0.027

DDT (UniProt P30046)
inactive: [1] -0.004 | [2] 0.008 | [3] -0.014 | [4] 0.039 | [5] -0.006 | [6] -0.02 | [7] 0.056 | [8] -0.064 | [9] -0.105 | [10] -0.044

DHRS3 (UniProt O75911)
inactive: [1] -0.032 | [2] -0.047 | [3] -0.081 | [4] -0.06 | [5] 0.05 | [6] -0.084 | [7] 0.024 | [8] 0.009 | [9] 0.046 | [10] -0.06

DECR1 (UniProt Q16698)
inactive: [1] 0.013 | [2] 0.002 | [3] -0.016 | [4] 0.025 | [5] -0.019 | [6] 0.02 | [7] 0.025 | [8] -0.022 | [9] -0.022 | [10] -0.038

DGCR8 (UniProt Q8WYQ5)
inactive: [1] 0.115 | [2] 0.085 | [3] 0.256 | [4] 0.173 | [5] 0.028 | [6] 0.008 | [7] -0.129 | [8] 0.173 | [9] 0.219 | [10] -0.113

More entries:

DHDDS isoform 2 (UniProt Q86SQ9)
inactive: [1] 0.009 | [2] -0.003 | [3] 0.033 | [4] -0.042 | [5] 0.003 | [6] -0.039 | [7] -0.005 | [8] -0.042 | [9] 0.064 | [10] 0.003

DHX9 (UniProt Q08211)
inactive: [1] -0.011 | [2] 0.036 | [3] 0.225 | [4] 0.079 | [5] 0 | [6] -0.007 | [7] -0.08 | [8] 0.201 | [9] 0.201 | [10] -0.18

DDX56 (UniProt Q9NY93)
inactive: [1] -0.025 | [2] 0.1 | [3] -0.029 | [4] 0.172 | [5] -0.091 | [6] -0.034 | [7] -0.139 | [8] 0.067 | [9] 0.288 | [10] 0.029

DHX30 isoform 2 (UniProt Q7L2E3)
inactive: [1] 0.052 | [2] -0.022 | [3] 0.103 | [4] 0.079 | [5] -0.017 | [6] 0.036 | [7] -0.04 | [8] 0.061 | [9] 0.138 | [10] -0.139

DDX41 (UniProt Q9UJV9)
inactive: [1] -0.112 | [2] 0.192 | [3] -0.07 | [4] -0.137 | [5] 0.044 | [6] 0.107 | [7] -0.009 | [8] -0.014 | [9] -0.038 | [10] -0.166

DDX24 (UniProt Q9GZR7)
inactive: [1] 0.016 | [2] 0.155 | [3] -0.232 | [4] 0.416 | [5] -0.087 | [6] -0.031 | [8] 0.164 | [9] 0.169

DDX59 (UniProt Q5T1V6)
inactive: [1] 0 | [2] -0.038 | [3] -0.032 | [4] -0.034 | [5] 0.008 | [6] -0.014 | [7] 0.127 | [8] 0.054 | [9] -0.173 | [10] -0.019

DNAH8 (UniProt Q96JB1)
inactive: [1] -0.122 | [2] -0.076 | [3] -0.039 | [4] 0.037 | [5] -0.013 | [7] -0.028 | [8] 0.183 | [9] -0.104 | [10] 0.404

DMTN (UniProt Q08495)
inactive: [1] -0.043 | [2] 0.079 | [3] 0.012 | [4] 0.024 | [5] -0.036 | [6] 0.037 | [7] 0.004 | [8] 0 | [9] -0.023 | [10] 0.034

DHX40 (UniProt Q8IX18)
inactive: [1] -0.093 | [2] -0.036 | [3] -0.157 | [4] -0.042 | [5] -0.004 | [6] -0.097 | [7] 0.081 | [8] -0.027 | [9] -0.116 | [10] -0.04

DDRGK1 (UniProt Q96HY6)
inactive: [1] -0.038 | [2] 0.025 | [3] -0.021 | [4] 0.019 | [5] -0.005 | [6] -0.02 | [7] 0.006 | [8] 0.041 | [9] -0.001 | [10] -0.093

DNAJA1 (UniProt P31689)
inactive: [1] -0.042 | [2] -0.026 | [3] -0.038 | [4] -0.088 | [5] 0.005 | [6] 0.026 | [7] 0.017 | [8] 0.001 | [9] -0.061 | [10] -0.09

DNAAF2 (UniProt Q9NVR5)
inactive: [1] 0.039 | [2] 0.025 | [3] -0.042 | [4] -0.044 | [5] -0.06 | [6] 0 | [7] -0.034 | [8] 0.016 | [9] -0.003 | [10] -0.03

DIMT1 (UniProt Q9UNQ2)
inactive: [1] 0.056 | [2] 0.107 | [3] 0.27 | [4] 0.094 | [5] -0.027 | [6] 0.004 | [7] -0.091 | [8] 0.086 | [9] 0.196 | [10] -0.149

DICER1 (UniProt Q9UPY3)
inactive: [1] -0.166 | [2] -0.082 | [3] -0.09 | [4] 0.078 | [5] 0.075 | [6] 0.085 | [8] 0.119 | [9] 0.133

DNAAF5 (UniProt Q86Y56)
inactive: [1] -0.084 | [2] -0.086 | [3] -0.191 | [4] 0.139 | [5] -0.295 | [6] 0.006 | [7] 0.032 | [8] 0.112 | [9] 0.358 | [10] -0.187
